The text below walks through data of US20220160802A1, “METHODS AND COMPOSITIONS FOR PROMOTING HEALTH IN A SUBJECT” (COMMONWEALTH SCIENTIFIC AND INDUSTRIAL RESEARCH ORGANISATION, priority 2019, published 2022).

Each structure is given as a SMILES string.

This series is described as follows: Untargeted LC-MS metabolite analysis of fermented and non-fermented broccoli puree. The conditions noted are these: fermented vs non-fermented broccoli puree.
For the compound `COc1cc(-c2cc(=O)c3c(O)c(OC)c(OC)cc3o2)ccc1O` [Cirsilineol], the FC is 2.6151.
The result for `O=C([O-])C(=O)OC(=O)C(=O)OCC1OC(Oc2cc3c(O)cc(O)cc3[o+]c2-c2ccc(O)c(O)c2)C(O)C(O)C1O` (centres unmarked) [Cyanidin 3-O-6″-dioxalyl-glucoside] reads 9.9207; that for `O=C(C=Cc1ccc(O)cc1)OC[C@H]1O[C@@H](Oc2cc3c(O)cc(O)cc3[o+]c2-c2ccc(O)c(O)c2)[C@H](O)[C@@H](O)[C@@H]1O` [Cyanidin 3-O-6″-p-coumaroyl-glucoside], 271.87.
The result for `Oc1cc(O)c2cc(O[C@@H]3OC[C@H](O)[C@H](O)[C@H]3O)c(-c3ccc(O)c(O)c3)[o+]c2c1` [Cyanidin 3-O-arabinoside] reads 16.098; that for `C[C@@H]1O[C@@H](OC[C@H]2O[C@@H](Oc3cc4c(O)cc(O)cc4[o+]c3-c3ccc(O)c(O)c3)[C@H](O)[C@@H](O)[C@@H]2O)[C@H](O)[C@H](O)[C@H]1O` [Cyanidin 3-O-rutinoside], 361.03.
As for `O=P(O)(O)OC[C@@H](O)[C@@H](O)c1cnc[nH]1` [D-erythro-imidazole-glycerol-phosphate], the figure is 10.288; as for `O=C[C@H](O)[C@H](O)COP(=O)(O)O` [D-erythrose 4-phosphate], 3.7463.
For `COc1ccc(CC2COC(=O)C2Cc2ccc(OC)c(OC)c2)cc1OC` (centres unmarked) [Dimethylmatairesinol], the FC was found to be 0.4348.
The result for `CC/C=C/CO` [E-2-pentenol] reads 3.5473; that for `CSCCCCCC/C=N/O` [E-7-methylthioheptanaldoxime], 2.2972; that for `O/N=C/Cc1ccccc1` [E-phenylacetaldoxime], 2.1608.
As for `O=c1oc2c(O)c(O[C@@H]3OC[C@H](O)[C@H](O)[C@H]3O)cc3c(=O)oc4c(O)c(O)cc1c4c23` [Ellagic acid arabinoside], the figure is 42.956; as for `Oc1cc2c(cc1[C@@H]1OC[C@H]3[C@@H]1CO[C@@H]3c1ccc3c(c1)OCO3)OCO2` [Episesaminol], 2.4077; as for `COc1cc(/C=C/C(=O)C(O)(C(=O)O)C(O)C(=O)O)ccc1O` (centres unmarked) [Feruloyl tartaric acid], 5.5489.
As for `O=C(O)c1cc(O)c(O[C@@H]2O[C@H](CO)[C@@H](O)[C@H](O)[C@H]2O)c(O)c1` [Gallic acid 4-O-glucoside], the FC turned out to be 2.515.
Take `COc1ccc(-c2cc(=O)c3c(O)c(OC)c(OC)c(OC)c3o2)cc1` [Gardenin B]: the FC was found to be 4.3888.
The result for `OCCc1ccc(OC2OC(CO)C(O)C(O)C2O)c(O)c1` (centres unmarked) [Hydroxytyrosol 4-O-glucoside] reads 28.971.
On to `COc1cc(-c2oc3cc(O[C@@H]4O[C@@H](C)[C@H](O)[C@@H](O)[C@H]4O)cc(O)c3c(=O)c2O[C@@H]2O[C@H](CO)[C@@H](O)[C@H](O)[C@H]2O)ccc1O` [Isorhamnetin 3-O-glucoside 7-O-rhamnoside], for which the FC came to 0.1536.
Consider `COc1cc(-c2oc3cc(O)cc(O)c3c(=O)c2O)ccc1O` [Isorhamnetin], for which the FC came to 2.2605.
As for `COc1ccc(-c2oc3cc(O)cc(O)c3c(=O)c2O)cc1` [Kaempferide], the figure is 0.1575; as for `C[C@@H]1O[C@@H](Oc2cc(O)c3c(=O)c(O[C@@H]4O[C@H](CO)[C@H](O)[C@H](O)[C@H]4O[C@@H]4O[C@@H](C)[C@H](O)[C@@H](O)[C@H]4O)c(-c4ccc(O)cc4)oc3c2)[C@H](O)[C@H](O)[C@H]1O` [Kaempferol 3-O-2″-rhamnosyl-galactoside 7-O-rhamnoside], 2.7008; as for `N[C@@H](CC1(C(=O)O)C=CC(O)C=C1)C(=O)O` (stereo partly drawn) [L-arogenate], 4.782.
The result for `N[C@@H](CC=O)C(=O)O` [L-aspartate-semialdehyde] reads 2.9298; that for `N[C@@H](CC(=O)O)C(=O)O` [L-aspartate], 3.5705.
On to `N[C@@H](CCN[C@@H](CCN1CC[C@H]1C(=O)O)C(=O)O)C(=O)O` [L-nicotianamine], for which the FC was determined as 0.3985.
The result for `N[C@@H](Cc1ccccc1)C(=O)O` [L-phenylalanine] reads 4.5585; that for `COc1cc(-c2[o+]c3cc(O)cc(O)c3cc2O[C@@H]2O[C@H](CO)[C@@H](O)[C@H](O)[C@H]2O)cc(OC)c1O` [Malvidin 3-O-glucoside], 0.4817.
Turning to `COc1cc([C@H]2OC[C@@H]3C(c4cc(OC)c(O)c(OC)c4)OC[C@H]23)ccc1O` (some centres unmarked) [Medioresinol], the FC is 3.6131.
The result for `O=c1c(OC2OCC(O)C(O)C2O)c(-c2cc(O)c(O)c(O)c2)oc2cc(O)cc(O)c12` (centres unmarked) [Myricetin 3-O-arabinoside] reads 2.3978; that for `CC(C)=CCNc1ncnc2c1ncn2[C@@H]1O[C@H](COP(=O)(O)O)[C@@H](O)[C@H]1O` [N6-delta2-isopentenyl-adenosine 5′-monophosphate], 44.241.
`CC(=O)N[C@H]1C(OP(=O)(O)O)O[C@H](COP(=O)(O)O)[C@@H](O)[C@@H]1O` (stereo partly drawn) [N-acetyl-D-glucosamine 1,6-bisphosphate]: the FC is 40.636.
The result for `COc1cc(/C=C/C(=O)NCCc2ccc(O)cc2)ccc1O` [N-feruloyltyramine] reads 3.3648; that for `O=C(O)[C@H](Cc1ccccc1)NO` [N-hydroxy-L-phenylalanine], 0.1141.
With `CSCCC[C@H](NO)C(=O)O` [N-hydroxyhomomethionine], the FC was found to be 12.902.
The result for `CSCCCCCCCC(NO)C(=O)O` (centres unmarked) [N-hydroxypentahomomethionine] reads 16.92; that for `CNCCOP(=O)(O)O` [N-methylethanolamine phosphate], 10.038; that for `CNCCO` [N-monomethylethanolamine], 2.7546.
The result for `COc1cc(-c2[o+]c3cc(O)cc(O)c3cc2OC2OC(C)C(O)C(O)C2O)cc(O)c1O` (centres unmarked) [Petunidin 3-O-rhamnoside] reads 6.0484.
In the case of `Oc1ccccc1` [Phenol], the FC was 4.4651.
The result for `Oc1cc(O)cc(/C=C/c2ccccc2)c1` [Pinosylvin] reads 0.2691; that for `CC(=O)OC[C@H]1OC(Oc2c(-c3ccc(O)c(O)c3)oc3cc(OC4O[C@@H](C)[C@H](O)[C@@H](O)[C@H]4O)cc(O)c3c2=O)[C@H](O)[C@@H](O)[C@H]1O` (some centres unmarked) [Quercetin 3-O-6″-acetyl-galactoside 7-O-rhamnoside], 2.9914; that for `CCC(C)(O)[C@@H](O)C(=O)O` (some centres unmarked) [R-2,3-dihydroxy-3-methylpentanoate], 2.995.
Turning to `CC(C)(COP(=O)(O)O)[C@@H](O)C(=O)NCCC(=O)N[C@@H](CS)C(=O)O` [R-4′-phosphopantothenoyl-L-cysteine], the FC amounted to 4.8855.
The result for `C[C@@](O)(CCOP(=O)(O)O)CC(=O)O` [R-mevalonate 5-phosphate] reads 0.3489; that for `CC(C)(CO)[C@@H](O)C(=O)NCCC(=O)O` [R-pantothenate], 0.1072.
As for `O=C(O)C1=N[C@H](C(=O)O)CCC1` [S-2,3,4,5-tetrahydrodipicolinate], the figure is 4.1401.
The result for `N#C[C@@H](O)c1ccc(O)cc1` [S-4-hydroxymandelonitrile] reads 0.3287.
